Reference: patent publication US20150017171A1
These are yes or no findings as the source states them, for the method shown. Some entries that bind do so weakly or less than the wild type. For some assays here: Where a sequence is shown, tags or fusion partners need not be part of it.

Sequences of proteins named here, by UniProt entry; tags and fusion partners are left off. A change or cut given only in a name is not applied to a line headed by its entry.
UniProt Q9BX97: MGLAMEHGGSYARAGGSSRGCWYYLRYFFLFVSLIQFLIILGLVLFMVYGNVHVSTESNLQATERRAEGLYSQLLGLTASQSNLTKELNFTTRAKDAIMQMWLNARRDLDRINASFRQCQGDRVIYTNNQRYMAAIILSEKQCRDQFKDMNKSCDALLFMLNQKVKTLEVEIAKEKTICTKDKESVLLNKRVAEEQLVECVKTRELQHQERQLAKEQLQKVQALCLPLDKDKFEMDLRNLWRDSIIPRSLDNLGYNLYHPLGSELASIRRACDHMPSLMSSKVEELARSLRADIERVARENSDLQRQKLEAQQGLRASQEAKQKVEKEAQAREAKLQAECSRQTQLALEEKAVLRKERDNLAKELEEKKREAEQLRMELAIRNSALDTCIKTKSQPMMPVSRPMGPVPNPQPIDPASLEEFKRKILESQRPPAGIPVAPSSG

Tests used:
[1] = biological target: cynomolgus monkey PLVAP (cynomolgus monkey); experiment: immunohistochemistry on arrays of formalin-fixed normal tissues
[2] = biological target: T1, rhesus monkey PLVAP (rhesus monkey) (UniProt H9Z0S1); experiment: as above
T1 sequence: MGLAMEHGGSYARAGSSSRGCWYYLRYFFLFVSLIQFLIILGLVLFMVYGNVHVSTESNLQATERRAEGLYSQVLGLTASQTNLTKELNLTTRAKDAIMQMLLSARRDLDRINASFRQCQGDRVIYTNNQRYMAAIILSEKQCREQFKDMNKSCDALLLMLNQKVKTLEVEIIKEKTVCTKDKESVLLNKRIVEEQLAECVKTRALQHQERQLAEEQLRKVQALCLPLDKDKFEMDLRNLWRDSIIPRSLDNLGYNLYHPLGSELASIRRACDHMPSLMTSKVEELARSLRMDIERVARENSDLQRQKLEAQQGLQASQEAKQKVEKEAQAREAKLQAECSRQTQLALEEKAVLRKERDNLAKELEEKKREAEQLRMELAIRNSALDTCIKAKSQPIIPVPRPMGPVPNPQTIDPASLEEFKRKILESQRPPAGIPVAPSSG

[3] = biological target: cynomolgus monkey PLVAP (cynomolgus monkey); experiment: immunohistochemistry on formalin-fixed normal cynomolgus monkey tissue [D00034 FIG. 27O]
[4] = biological target: cynomolgus monkey PLVAP (cynomolgus monkey); experiment: immunohistochemistry, cynomolgus monkey kidney section (FIG. 27O)
[5] = biological target: T2, His-tagged human PLVAP51-442 recombinant fusion protein (human) (UniProt Q9BX97); experiment: immunoblot of total protein extract of E. coli expressing the His-tagged protein
T2 sequence: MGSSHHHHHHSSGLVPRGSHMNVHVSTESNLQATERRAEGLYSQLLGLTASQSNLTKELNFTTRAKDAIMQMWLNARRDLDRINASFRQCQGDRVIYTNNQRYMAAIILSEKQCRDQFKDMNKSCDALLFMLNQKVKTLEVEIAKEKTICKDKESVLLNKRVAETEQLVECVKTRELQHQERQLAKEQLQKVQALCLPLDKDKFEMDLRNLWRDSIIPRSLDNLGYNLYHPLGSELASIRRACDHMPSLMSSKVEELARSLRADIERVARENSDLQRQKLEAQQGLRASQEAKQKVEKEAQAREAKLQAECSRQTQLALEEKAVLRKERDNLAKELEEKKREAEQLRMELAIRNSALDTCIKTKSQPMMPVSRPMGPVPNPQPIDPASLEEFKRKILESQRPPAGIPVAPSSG

[6] = biological target: T2, His-tagged human PLVAP51-442 recombinant fusion protein (human); experiment: immunoblot of E. coli total protein extract
[7] = biological target: T1, rhesus monkey PLVAP (rhesus monkey); experiment: immunohistochemistry on formalin-fixed normal rhesus monkey tissue [D00034 FIG. 27P]
[8] = biological target: T1, rhesus monkey PLVAP (rhesus monkey); experiment: immunohistochemistry, rhesus monkey kidney section (FIG. 27P)

binding [1]: binds | binding [2]: binds | binding [3]: binds | binding [4]: binds | binding [5]: binds | binding [6]: binds | binding [7]: binds | binding [8]: binds
B1: KFCC-GY5 monoclonal antibody (murine, hybridoma ATCC PTA-9964) (antibody, mouse IgG1, V domains shown)
VH: QVQLQQPGAELVRPGASVKLSCKASGYTFTSNYINWVKQRPGQGLEWIGNIYPSDGFTNYNQKFKDRATLTVDKSSSTAYMQLSSPTSEDSAVYYCTRNFDVWGAGTTVTVSS
VL: DVVMTQTPLSLPVSLGDQASISCRSSQSLVHSNGNTYLQWYLQKPGQSPKLLIYTVSNRFSGVPDRFSGSGSGPDFTLKISRVEAEDLGVYFCSQSTHVPFTFGSGTKLEIK
